PubChem BioAssay AID1224828, NIAID – 2016
Test: 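Find genes required for NF-kappaB p65 moving into the nucleus after LPS in mouse macrophages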 (primary screen). System: mouse RAW264.7 G9 macrophage reporter cells (GFP-p65, Tnf promoter-mCherry). Knock-down reagent: siRNA pool against mouse genes, 100 nM. Time to read-out: 2 days siRNA transfection, then 40 min LPS before fixation. Treatment: LPS (Salmonella minnesota R595) at 10 ng/ml. Measurement: 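Microscopy ratio of nuclear to perinuclear-ring GFP-p65 signal, scaled to the plate median; gene score is the average of two replicate robust z-scores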. Direction: p65 translocation robust z-score: higher = more nuclear NF-kappaB p65 after LPS than the plate median; nuclear/cytoplasmic p65 ratio: higher = more nuclear NF-kappaB p65. Rule for the call: 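Called active when z exceeds 3.3 or falls under -1.56 (median of Tlr4 controls), giving activity score of at least 50; no calls for control wells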. Meaning of the calls: active = hit (p65 shift raised or lowered); inactive = no clear change.
The whole screen tested about 17,000 reagents; shown is an unselected part. Over the whole deposit, 762 (4.5%) got an active call. 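Active calls include both raised and lowered p65 entry, mostly lowered; wells with fewer than 50 cells lack a z-score.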 Raw values are not corrected between plates.

With Med4, how do the results read?
p65 translocation robust z-score: 0.23; nuclear/cytoplasmic p65 ratio, rep 1: 1.52; nuclear/cytoplasmic p65 ratio, rep 2: 1.56; low cell count flag: enough cells to score; Outcome: inactive

For Lrrc58, what does the deposit list?
nuclear/cytoplasmic p65 ratio, rep 1: 1.26; nuclear/cytoplasmic p65 ratio, rep 2: 1.36; low cell count flag: fewer than 50 cells per well; well left out of scoring; Outcome: inactive

Which result is listed for Cog8?
p65 translocation robust z-score: 0.58; nuclear/cytoplasmic p65 ratio, rep 1: 1.68; nuclear/cytoplasmic p65 ratio, rep 2: 1.86; low cell count flag: enough cells to score; Outcome: inactive

For Or9s14, what does the deposit list?
p65 translocation robust z-score: 0.39; nuclear/cytoplasmic p65 ratio, rep 1: 1.8; nuclear/cytoplasmic p65 ratio, rep 2: 1.36; low cell count flag: enough cells to score; Outcome: inactive

What is on record for Tesc?
p65 translocation robust z-score: 0.83; nuclear/cytoplasmic p65 ratio, rep 1: 1.48; nuclear/cytoplasmic p65 ratio, rep 2: 1.27; low cell count flag: enough cells to score; Outcome: inactive

For Gmpr, what was measured?
p65 translocation robust z-score: 0.2; nuclear/cytoplasmic p65 ratio, rep 1: 1.41; nuclear/cytoplasmic p65 ratio, rep 2: 1.45; low cell count flag: enough cells to score; Outcome: inactive

For Txndc17, what does the deposit list?
nuclear/cytoplasmic p65 ratio, rep 1: 1.33; nuclear/cytoplasmic p65 ratio, rep 2: 1.19; low cell count flag: fewer than 50 cells per well; well left out of scoring; Outcome: inactive

What did the screen give for Pcdh15?
p65 translocation robust z-score: -0.13; nuclear/cytoplasmic p65 ratio, rep 1: 1.52; nuclear/cytoplasmic p65 ratio, rep 2: 1.32; low cell count flag: enough cells to score; Outcome: inactive

With Akr1c21, what was measured?
p65 translocation robust z-score: 0.34; nuclear/cytoplasmic p65 ratio, rep 1: 1.6; nuclear/cytoplasmic p65 ratio, rep 2: 1.8; low cell count flag: enough cells to score; Outcome: inactive

For Cimap2, how do the results read?
p65 translocation robust z-score: -0.95; nuclear/cytoplasmic p65 ratio, rep 1: 1.54; nuclear/cytoplasmic p65 ratio, rep 2: 1.44; low cell count flag: enough cells to score; Outcome: inactive

Quoted from the listing (3 entries):
Or9s14: p65 translocation robust z-score = 0.39; nuclear/cytoplasmic p65 ratio, rep 1 = 1.8; nuclear/cytoplasmic p65 ratio, rep 2 = 1.36; low cell count flag = enough cells to score; Outcome = inactive
Tesc: p65 translocation robust z-score = 0.83; nuclear/cytoplasmic p65 ratio, rep 1 = 1.48; nuclear/cytoplasmic p65 ratio, rep 2 = 1.27; low cell count flag = enough cells to score; Outcome = inactive
Gmpr: p65 translocation robust z-score = 0.2; nuclear/cytoplasmic p65 ratio, rep 1 = 1.41; nuclear/cytoplasmic p65 ratio, rep 2 = 1.45; low cell count flag = enough cells to score; Outcome = inactive

Further reagents:
What did the screen give for Kcnab3?
p65 translocation robust z-score: -0.1; nuclear/cytoplasmic p65 ratio, rep 1: 1.48; nuclear/cytoplasmic p65 ratio, rep 2: 1.35; low cell count flag: enough cells to score; Outcome: inactive

Which result is listed for Stat5b?
p65 translocation robust z-score: 1.05; nuclear/cytoplasmic p65 ratio, rep 1: 1.57; nuclear/cytoplasmic p65 ratio, rep 2: 1.84; low cell count flag: enough cells to score; Outcome: inactive

With Rpl11, what was measured?
p65 translocation robust z-score: -1.72; nuclear/cytoplasmic p65 ratio, rep 1: 1.25; nuclear/cytoplasmic p65 ratio, rep 2: 1.3; low cell count flag: enough cells to score; Outcome: active

What is on record for Tmem270?
p65 translocation robust z-score: -1.22; nuclear/cytoplasmic p65 ratio, rep 1: 1.37; nuclear/cytoplasmic p65 ratio, rep 2: 1.26; low cell count flag: enough cells to score; Outcome: inactive

Which result is listed for Pigc?
p65 translocation robust z-score: 0.04; nuclear/cytoplasmic p65 ratio, rep 1: 1.34; nuclear/cytoplasmic p65 ratio, rep 2: 1.25; low cell count flag: enough cells to score; Outcome: inactive

For Tbrg4, what was measured?
p65 translocation robust z-score: -0.01; nuclear/cytoplasmic p65 ratio, rep 1: 1.54; nuclear/cytoplasmic p65 ratio, rep 2: 1.49; low cell count flag: enough cells to score; Outcome: inactive

Which result is listed for Gorasp2?
p65 translocation robust z-score: 1.29; nuclear/cytoplasmic p65 ratio, rep 1: 1.78; nuclear/cytoplasmic p65 ratio, rep 2: 1.79; low cell count flag: enough cells to score; Outcome: inactive

How did the screen score Nlrp5?
p65 translocation robust z-score: -1.72; nuclear/cytoplasmic p65 ratio, rep 1: 1.5; nuclear/cytoplasmic p65 ratio, rep 2: 1.39; low cell count flag: enough cells to score; Outcome: active

With Wif1, what was measured?
nuclear/cytoplasmic p65 ratio, rep 1: 1.71; nuclear/cytoplasmic p65 ratio, rep 2: 1.2; low cell count flag: fewer than 50 cells per well; well left out of scoring; Outcome: inactive

Which result is listed for Cirbp?
p65 translocation robust z-score: -0.67; nuclear/cytoplasmic p65 ratio, rep 1: 1.24; nuclear/cytoplasmic p65 ratio, rep 2: 1.29; low cell count flag: enough cells to score; Outcome: inactive

Which result is listed for C5ar2?
p65 translocation robust z-score: -1.33; nuclear/cytoplasmic p65 ratio, rep 1: 1.3; nuclear/cytoplasmic p65 ratio, rep 2: 1.4; low cell count flag: enough cells to score; Outcome: inactive

For Hmx3, what does the deposit list?
p65 translocation robust z-score: -0.68; nuclear/cytoplasmic p65 ratio, rep 1: 1.6; nuclear/cytoplasmic p65 ratio, rep 2: 1.39; low cell count flag: enough cells to score; Outcome: inactive

What is on record for Hmgcs2?
p65 translocation robust z-score: -0.24; nuclear/cytoplasmic p65 ratio, rep 1: 1.4; nuclear/cytoplasmic p65 ratio, rep 2: 1.35; low cell count flag: enough cells to score; Outcome: inactive

How did the screen score Nherf4?
p65 translocation robust z-score: -0.58; nuclear/cytoplasmic p65 ratio, rep 1: 1.32; nuclear/cytoplasmic p65 ratio, rep 2: 1.22; low cell count flag: enough cells to score; Outcome: inactive

What did the screen give for Or4d11?
p65 translocation robust z-score: 0.28; nuclear/cytoplasmic p65 ratio, rep 1: 1.65; nuclear/cytoplasmic p65 ratio, rep 2: 1.46; low cell count flag: enough cells to score; Outcome: inactive

With Ehmt2, how do the results read?
p65 translocation robust z-score: -1.23; nuclear/cytoplasmic p65 ratio, rep 2: 1.42; low cell count flag: enough cells to score; Outcome: inactive

Which result is listed for Susd4?
p65 translocation robust z-score: 3.96; nuclear/cytoplasmic p65 ratio, rep 1: 2.01; nuclear/cytoplasmic p65 ratio, rep 2: 1.42; low cell count flag: enough cells to score; Outcome: active
